29 targets from the supplement of paper PMC10849652 can be followed below.

By UniProt entry, the sequences of proteins in these tests, tags left out. Where a name states a change or a piece, a line headed by the entry shows the natural chain unless it says otherwise.
UniProt O95983: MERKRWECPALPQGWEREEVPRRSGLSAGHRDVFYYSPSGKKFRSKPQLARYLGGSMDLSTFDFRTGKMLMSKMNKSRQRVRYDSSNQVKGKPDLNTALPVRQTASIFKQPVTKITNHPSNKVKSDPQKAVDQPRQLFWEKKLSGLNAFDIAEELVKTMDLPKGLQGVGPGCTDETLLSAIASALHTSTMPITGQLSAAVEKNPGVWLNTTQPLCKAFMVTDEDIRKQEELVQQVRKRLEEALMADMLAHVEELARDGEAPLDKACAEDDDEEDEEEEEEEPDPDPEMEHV
UniProt P31153, whole entry, looked up: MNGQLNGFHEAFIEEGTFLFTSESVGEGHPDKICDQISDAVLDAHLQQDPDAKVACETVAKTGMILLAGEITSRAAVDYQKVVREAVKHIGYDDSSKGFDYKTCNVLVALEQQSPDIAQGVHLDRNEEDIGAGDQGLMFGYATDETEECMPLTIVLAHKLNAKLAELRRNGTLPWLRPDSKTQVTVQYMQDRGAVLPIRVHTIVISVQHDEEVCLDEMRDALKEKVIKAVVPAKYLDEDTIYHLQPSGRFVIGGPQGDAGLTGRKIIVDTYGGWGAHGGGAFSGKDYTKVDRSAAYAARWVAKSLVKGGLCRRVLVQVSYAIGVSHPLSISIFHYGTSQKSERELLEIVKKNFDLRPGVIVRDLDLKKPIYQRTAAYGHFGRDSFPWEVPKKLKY
UniProt Q02078: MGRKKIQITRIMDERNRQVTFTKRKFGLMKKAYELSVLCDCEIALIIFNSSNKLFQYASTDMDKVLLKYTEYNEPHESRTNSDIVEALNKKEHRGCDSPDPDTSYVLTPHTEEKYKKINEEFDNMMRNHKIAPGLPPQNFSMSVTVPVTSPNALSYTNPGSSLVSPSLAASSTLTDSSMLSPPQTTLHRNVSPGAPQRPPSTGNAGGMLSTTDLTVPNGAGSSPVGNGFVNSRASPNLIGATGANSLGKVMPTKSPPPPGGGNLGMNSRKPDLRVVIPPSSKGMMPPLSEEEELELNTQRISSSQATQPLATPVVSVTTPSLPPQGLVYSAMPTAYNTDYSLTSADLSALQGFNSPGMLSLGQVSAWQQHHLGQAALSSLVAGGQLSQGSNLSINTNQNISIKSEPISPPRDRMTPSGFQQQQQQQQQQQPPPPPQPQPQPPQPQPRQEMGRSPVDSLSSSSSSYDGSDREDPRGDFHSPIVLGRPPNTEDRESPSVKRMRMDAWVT
UniProt Q14703: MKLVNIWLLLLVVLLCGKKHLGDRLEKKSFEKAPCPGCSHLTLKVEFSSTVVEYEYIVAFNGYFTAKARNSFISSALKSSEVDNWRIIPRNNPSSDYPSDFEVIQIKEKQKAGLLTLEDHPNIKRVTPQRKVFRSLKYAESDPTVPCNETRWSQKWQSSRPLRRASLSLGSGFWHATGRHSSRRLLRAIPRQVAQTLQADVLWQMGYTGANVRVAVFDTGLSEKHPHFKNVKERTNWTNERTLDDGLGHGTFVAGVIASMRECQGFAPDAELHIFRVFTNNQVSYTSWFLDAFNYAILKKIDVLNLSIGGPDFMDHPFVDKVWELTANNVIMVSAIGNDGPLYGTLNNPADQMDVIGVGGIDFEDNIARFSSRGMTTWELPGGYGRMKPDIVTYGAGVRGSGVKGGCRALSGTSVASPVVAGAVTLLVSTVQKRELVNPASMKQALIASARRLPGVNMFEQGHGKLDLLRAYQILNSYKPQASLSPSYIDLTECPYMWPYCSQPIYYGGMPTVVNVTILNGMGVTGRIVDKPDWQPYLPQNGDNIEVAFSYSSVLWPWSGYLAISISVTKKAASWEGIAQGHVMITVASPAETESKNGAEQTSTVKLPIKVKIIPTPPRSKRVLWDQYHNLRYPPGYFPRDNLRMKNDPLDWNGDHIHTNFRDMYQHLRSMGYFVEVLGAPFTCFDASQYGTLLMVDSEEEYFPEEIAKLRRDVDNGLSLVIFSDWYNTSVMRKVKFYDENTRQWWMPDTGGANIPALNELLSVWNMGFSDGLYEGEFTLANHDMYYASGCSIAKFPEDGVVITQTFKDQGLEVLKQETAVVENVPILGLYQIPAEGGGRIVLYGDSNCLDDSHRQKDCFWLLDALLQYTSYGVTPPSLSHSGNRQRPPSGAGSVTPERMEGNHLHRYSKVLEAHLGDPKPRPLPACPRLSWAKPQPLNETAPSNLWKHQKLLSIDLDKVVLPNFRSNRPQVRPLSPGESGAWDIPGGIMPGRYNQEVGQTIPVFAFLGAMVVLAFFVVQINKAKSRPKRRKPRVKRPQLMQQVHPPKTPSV
UniProt Q99735: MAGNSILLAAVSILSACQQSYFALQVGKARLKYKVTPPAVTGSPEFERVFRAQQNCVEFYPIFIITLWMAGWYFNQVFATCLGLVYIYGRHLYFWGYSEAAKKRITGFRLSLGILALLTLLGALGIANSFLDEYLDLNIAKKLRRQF
UniProt Q9UBP6: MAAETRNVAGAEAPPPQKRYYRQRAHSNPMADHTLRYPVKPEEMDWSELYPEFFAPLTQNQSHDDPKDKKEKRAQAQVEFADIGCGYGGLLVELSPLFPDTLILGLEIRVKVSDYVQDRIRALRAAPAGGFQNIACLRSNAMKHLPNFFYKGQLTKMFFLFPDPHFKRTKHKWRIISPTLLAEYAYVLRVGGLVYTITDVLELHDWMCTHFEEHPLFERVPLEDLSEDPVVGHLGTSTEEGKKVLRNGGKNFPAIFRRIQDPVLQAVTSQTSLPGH
UniProt Q9ULK4: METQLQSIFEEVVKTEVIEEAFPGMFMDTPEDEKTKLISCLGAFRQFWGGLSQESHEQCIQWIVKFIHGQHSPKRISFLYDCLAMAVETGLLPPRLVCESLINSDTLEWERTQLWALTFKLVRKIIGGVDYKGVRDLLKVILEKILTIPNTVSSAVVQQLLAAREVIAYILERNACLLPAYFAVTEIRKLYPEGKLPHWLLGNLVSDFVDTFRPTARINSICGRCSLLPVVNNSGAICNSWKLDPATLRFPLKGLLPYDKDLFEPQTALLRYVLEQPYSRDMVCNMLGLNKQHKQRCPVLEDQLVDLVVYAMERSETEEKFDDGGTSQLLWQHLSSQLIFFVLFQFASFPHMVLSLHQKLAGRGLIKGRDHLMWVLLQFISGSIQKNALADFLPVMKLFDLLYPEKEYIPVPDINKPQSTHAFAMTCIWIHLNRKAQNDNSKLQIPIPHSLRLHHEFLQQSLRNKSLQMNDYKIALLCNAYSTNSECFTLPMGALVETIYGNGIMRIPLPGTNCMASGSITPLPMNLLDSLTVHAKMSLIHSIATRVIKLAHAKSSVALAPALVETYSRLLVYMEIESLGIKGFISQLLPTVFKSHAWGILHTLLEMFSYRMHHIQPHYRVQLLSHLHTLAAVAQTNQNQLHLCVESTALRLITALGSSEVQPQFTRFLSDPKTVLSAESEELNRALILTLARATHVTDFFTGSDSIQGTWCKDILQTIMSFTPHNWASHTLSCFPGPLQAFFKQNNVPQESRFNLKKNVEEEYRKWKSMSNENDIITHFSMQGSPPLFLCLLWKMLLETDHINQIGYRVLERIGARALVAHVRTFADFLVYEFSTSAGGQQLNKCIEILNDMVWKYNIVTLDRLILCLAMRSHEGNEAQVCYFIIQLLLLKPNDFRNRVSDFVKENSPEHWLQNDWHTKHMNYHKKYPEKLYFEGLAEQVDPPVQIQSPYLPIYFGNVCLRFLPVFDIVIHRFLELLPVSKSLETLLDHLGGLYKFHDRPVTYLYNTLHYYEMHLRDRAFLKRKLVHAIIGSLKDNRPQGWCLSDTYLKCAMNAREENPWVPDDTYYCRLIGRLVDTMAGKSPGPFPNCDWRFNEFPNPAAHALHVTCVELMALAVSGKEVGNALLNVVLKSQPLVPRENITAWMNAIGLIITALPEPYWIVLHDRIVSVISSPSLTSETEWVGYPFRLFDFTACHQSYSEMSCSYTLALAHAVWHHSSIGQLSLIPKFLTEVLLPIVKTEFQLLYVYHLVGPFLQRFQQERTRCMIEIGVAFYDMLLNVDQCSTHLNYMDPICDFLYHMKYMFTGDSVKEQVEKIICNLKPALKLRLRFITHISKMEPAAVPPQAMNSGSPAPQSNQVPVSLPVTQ
UniProt Q96HR3: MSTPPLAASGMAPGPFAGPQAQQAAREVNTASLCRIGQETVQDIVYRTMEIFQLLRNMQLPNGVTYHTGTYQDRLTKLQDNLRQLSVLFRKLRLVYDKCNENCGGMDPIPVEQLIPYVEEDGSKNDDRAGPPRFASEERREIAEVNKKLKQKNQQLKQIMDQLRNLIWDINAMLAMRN
UniProt Q9NWR8: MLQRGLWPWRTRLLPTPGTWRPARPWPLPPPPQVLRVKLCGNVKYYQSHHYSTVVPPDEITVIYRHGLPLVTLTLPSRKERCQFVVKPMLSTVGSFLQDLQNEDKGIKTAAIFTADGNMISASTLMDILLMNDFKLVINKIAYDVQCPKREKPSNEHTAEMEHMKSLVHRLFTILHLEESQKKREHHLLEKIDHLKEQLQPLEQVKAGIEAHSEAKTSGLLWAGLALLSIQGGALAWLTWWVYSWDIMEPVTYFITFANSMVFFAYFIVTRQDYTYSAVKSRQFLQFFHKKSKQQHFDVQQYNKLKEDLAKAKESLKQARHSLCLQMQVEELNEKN
UniProt Q13503: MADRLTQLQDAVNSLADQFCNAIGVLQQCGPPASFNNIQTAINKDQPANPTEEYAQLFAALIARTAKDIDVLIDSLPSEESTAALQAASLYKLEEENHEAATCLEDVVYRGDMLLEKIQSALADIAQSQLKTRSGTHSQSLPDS
UniProt Q00266: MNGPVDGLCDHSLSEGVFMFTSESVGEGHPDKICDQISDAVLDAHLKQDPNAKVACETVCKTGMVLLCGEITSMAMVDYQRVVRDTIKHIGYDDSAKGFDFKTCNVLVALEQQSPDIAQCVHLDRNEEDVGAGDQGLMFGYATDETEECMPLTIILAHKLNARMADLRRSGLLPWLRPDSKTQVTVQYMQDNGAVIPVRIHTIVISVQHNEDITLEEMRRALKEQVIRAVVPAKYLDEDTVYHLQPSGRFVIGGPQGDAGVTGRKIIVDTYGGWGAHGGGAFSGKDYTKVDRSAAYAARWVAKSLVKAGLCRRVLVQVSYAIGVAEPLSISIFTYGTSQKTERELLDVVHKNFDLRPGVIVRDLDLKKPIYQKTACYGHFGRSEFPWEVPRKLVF
UniProt Q9UQ53: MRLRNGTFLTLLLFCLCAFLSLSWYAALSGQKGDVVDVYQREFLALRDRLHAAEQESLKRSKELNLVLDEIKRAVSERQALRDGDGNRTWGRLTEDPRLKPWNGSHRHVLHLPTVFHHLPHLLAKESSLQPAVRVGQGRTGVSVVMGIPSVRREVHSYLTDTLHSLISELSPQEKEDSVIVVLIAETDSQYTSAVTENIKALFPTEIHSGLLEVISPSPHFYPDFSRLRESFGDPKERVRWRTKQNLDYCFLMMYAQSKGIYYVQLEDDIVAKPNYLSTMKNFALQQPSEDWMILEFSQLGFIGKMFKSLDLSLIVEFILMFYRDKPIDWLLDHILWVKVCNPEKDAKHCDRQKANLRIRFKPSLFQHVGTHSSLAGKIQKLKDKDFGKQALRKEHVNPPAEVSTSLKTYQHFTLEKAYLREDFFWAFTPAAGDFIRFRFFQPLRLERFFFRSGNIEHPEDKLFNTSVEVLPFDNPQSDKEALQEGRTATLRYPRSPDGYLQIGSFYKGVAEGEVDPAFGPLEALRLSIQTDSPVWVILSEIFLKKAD
UniProt Q9BTT4: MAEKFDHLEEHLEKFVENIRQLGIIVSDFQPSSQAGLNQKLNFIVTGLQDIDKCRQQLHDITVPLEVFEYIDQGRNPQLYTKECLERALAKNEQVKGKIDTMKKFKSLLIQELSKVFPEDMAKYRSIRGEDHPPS
UniProt Q14566: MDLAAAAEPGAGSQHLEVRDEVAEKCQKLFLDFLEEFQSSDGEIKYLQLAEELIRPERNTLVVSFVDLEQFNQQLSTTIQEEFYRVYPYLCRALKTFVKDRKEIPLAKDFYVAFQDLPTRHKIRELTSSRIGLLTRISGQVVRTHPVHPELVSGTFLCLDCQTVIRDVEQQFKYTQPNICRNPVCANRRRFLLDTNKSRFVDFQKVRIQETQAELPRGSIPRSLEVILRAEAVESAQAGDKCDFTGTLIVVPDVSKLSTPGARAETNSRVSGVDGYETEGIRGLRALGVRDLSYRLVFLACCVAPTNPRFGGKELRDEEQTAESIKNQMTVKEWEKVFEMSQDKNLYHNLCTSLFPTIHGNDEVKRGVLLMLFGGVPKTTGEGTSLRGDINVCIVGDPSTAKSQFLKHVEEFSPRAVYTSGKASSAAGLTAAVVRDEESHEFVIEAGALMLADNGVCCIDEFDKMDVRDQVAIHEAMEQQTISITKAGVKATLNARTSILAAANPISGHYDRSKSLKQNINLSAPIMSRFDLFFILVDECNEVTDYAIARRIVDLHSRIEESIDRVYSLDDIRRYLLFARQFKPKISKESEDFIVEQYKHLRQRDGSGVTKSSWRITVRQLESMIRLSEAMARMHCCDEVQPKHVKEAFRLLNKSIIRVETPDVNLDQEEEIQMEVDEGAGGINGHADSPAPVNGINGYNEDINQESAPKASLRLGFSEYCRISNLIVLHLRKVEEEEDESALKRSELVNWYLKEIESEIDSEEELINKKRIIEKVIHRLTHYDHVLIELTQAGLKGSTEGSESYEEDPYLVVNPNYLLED

This is one part of the list.

Compound in this assay: c1cn2cc(-c3ccc4cn[nH]c4c3)nc(Nc3ccc(N4CCOCC4)cc3)c2n1 [entospletinib]
Nature of the assay: log2 fold change, soluble protein after heating vs DMSO (PISA); higher = thermal stabilisation; K562 cells, 10 uM, 30 min; active = over 0.2 and 3.5 SD of the protein, either way, in both replicates (recomputed). Put shortly:
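K562 cells at 2×10^6 cells/mL were treated with 10 μM compound for 30 min. Aliquots were heated for 3 min across 48°C-58°C, pooled, and extracted in PBS with 0.5% NP-40 at 4°C; soluble protein was the supernatant after 21,000xg for 90 min. Soluble protein was quantified by TMTpro 16plex LC-MS/MS with channel sums equalised, and reported as log2 fold change in thermal stability against DMSO controls, with values from duplicates.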
As for MBD3 (UniProt O95983), the log2 fold change is inactive: 0.
Regarding MGAT1 (UniProt P26572), the log2 fold change was inactive: 0.017.
For the target MAT2A (UniProt P31153), the log2 fold change is inactive: 0.008.
For MCM4 (UniProt P33991), the log2 fold change was inactive: -0.025.
Turning to MEF2A (UniProt Q02078), the log2 fold change is inactive: -0.128.
The result for MBNL1 (UniProt Q9NR56) reads inactive: -0.059; that for METTL14 (UniProt Q9HCE5), inactive: 0.01; that for MCMBP (UniProt Q9BTE3), inactive: -0.016.
With MBTPS1 (UniProt Q14703) the figure was inactive: -0.132; with MGST2 (UniProt Q99735), inactive: 0.017; with MEF2D (UniProt Q14814), inactive: 0.008.
As for MED9 (UniProt Q9NWA0), the log2 fold change is inactive: 0.055.
METTL1 (UniProt Q9UBP6): the log2 fold change was inactive: 0.014.
For MED23 (UniProt Q9ULK4), the log2 fold change was inactive: -0.031.
The result for METAP2 (UniProt P50579) reads inactive: 0.009; that for MED30 (UniProt Q96HR3), inactive: -0.013; that for MCUB (UniProt Q9NWR8), inactive: -0.008.
Consider MED6 (UniProt O75586), for which the log2 fold change is inactive: -0.035.
On to MED4 (UniProt Q9NPJ6), for which the log2 fold change is inactive: 0.037.
With MBOAT1 (UniProt Q6ZNC8), the log2 fold change is inactive: -0.051.
The result for MED21 (UniProt Q13503) reads inactive: -0.004; that for MAT1A (UniProt Q00266), inactive: -0.016; that for MCM7 (UniProt P33993), inactive: -0.01.
Consider MGAT5 (UniProt Q09328), for which the log2 fold change is inactive: 0.
Turning to MGAT4B isoform 3 (UniProt Q9UQ53), the log2 fold change is inactive: 0.006.
Turning to MED10 (UniProt Q9BTT4), the log2 fold change is inactive: -0.055.
On to MBLAC2 (UniProt Q68D91), for which the log2 fold change is inactive: -0.017.
For the target MATR3 (UniProt P43243), the log2 fold change was inactive: 0.046.
MCM6 (UniProt Q14566): the log2 fold change is inactive: -0.001.
